Laboratory results reported in patent EP0387762A2, “Medicament with positive inotropic activity, containing a synergistically active mixture consisting of a benzimidazole and a beta-blocker, its preparation and use” (Dr. Karl Thomae GmbH, priority 1989, dated 1990).

Tested on: Hunde
Conditions: dogs, after i.v. dosing (Verbindung A 0,3 mg/kg; Atenolol 0,1 mg/kg; A/Atenolol 0,3/0,1 mg/kg)

SMILES: CC(C)NCC(O)COc1ccc(CC(N)=O)cc1 (centres unmarked) [Atenolol, reference compound]
- LV-dP/dtmax (mmHg/s) in Ruhe (at rest): 1,88 ± 0,16 mmHg/s
- LV-dP/dtmax (mmHg/s) bei maximaler Belastung im Versuch (8 km/h) (treadmill 8 km/h): 2,15 ± 0,17 mmHg/s
